Results reported in article doi:10.1101/2022.09.25.509417.
Results are given in words; binding and its absence hold for the method and conditions named. In cells and extracts the contact can be indirect. Some binding calls cover weakened binding; strength is not graded here. For some assays here: Sequences can lack the tags named with a protein.

T1: Myc-tagged MCFD2 (multiple coagulation factor deficiency protein 2) (UniProt Q8NI22)
T1 sequence: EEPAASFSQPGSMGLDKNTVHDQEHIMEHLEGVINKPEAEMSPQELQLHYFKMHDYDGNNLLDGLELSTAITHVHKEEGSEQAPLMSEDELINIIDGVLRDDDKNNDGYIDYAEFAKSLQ

T2: LMAN1 (in the co-IP of Fig. S4) (UniProt P49257)
T2 sequence: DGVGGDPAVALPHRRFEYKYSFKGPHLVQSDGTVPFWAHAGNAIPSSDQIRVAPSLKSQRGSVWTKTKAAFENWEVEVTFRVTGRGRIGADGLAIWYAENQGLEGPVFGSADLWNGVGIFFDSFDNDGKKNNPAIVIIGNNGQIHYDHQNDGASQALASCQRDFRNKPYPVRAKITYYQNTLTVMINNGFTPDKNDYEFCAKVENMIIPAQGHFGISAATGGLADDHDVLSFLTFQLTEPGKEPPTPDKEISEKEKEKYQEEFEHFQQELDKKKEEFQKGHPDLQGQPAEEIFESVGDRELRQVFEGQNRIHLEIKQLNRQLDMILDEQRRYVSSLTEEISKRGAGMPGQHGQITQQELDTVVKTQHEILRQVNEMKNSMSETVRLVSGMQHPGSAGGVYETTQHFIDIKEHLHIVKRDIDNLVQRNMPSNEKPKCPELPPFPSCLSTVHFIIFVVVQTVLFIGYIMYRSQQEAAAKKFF


Tests used:
[1] = target: T1, Myc-tagged MCFD2 (multiple coagulation factor deficiency protein 2); assay: co-IP
[2] = target: T2, LMAN1 (in the co-IP of Fig. S4); assay: co-IP

Row | Binder | binding [1] | binding [2]
1 | FLAG-tagged LMAN1 H178A variant (protein, UniProt P49257 31-510) DGVGGDPAVALPHRRFEYKYSFKGPHLVQSDGTVPFWAHAGNAIPSSDQIRVAPSLKSQRGSVWTKTKAAFENWEVEVTFRVTGRGRIGADGLAIWYAENQGLEGPVFGSADLWNGVGIFFDSFDNDGKKNNPAIVIIGNNGQIHYDAQNDGASQALASCQRDFRNKPYPVRAKITYYQNTLTVMINNGFTPDKNDYEFCAKVENMIIPAQGHFGISAATGGLADDHDVLSFLTFQLTEPGKEPPTPDKEISEKEKEKYQEEFEHFQQELDKKKEEFQKGHPDLQGQPAEEIFESVGDRELRQVFEGQNRIHLEIKQLNRQLDMILDEQRRYVSSLTEEISKRGAGMPGQHGQITQQELDTVVKTQHEILRQVNEMKNSMSETVRLVSGMQHPGSAGGVYETTQHFIDIKEHLHIVKRDIDNLVQRNMPSNEKPKCPELPPFPSCLSTVHFIIFVVVQTVLFIGYIMYRSQQEAAAKKFF | binds | 
2 | FLAG-tagged LMAN1 N156A variant (protein, UniProt P49257 31-510) DGVGGDPAVALPHRRFEYKYSFKGPHLVQSDGTVPFWAHAGNAIPSSDQIRVAPSLKSQRGSVWTKTKAAFENWEVEVTFRVTGRGRIGADGLAIWYAENQGLEGPVFGSADLWNGVGIFFDSFDADGKKNNPAIVIIGNNGQIHYDHQNDGASQALASCQRDFRNKPYPVRAKITYYQNTLTVMINNGFTPDKNDYEFCAKVENMIIPAQGHFGISAATGGLADDHDVLSFLTFQLTEPGKEPPTPDKEISEKEKEKYQEEFEHFQQELDKKKEEFQKGHPDLQGQPAEEIFESVGDRELRQVFEGQNRIHLEIKQLNRQLDMILDEQRRYVSSLTEEISKRGAGMPGQHGQITQQELDTVVKTQHEILRQVNEMKNSMSETVRLVSGMQHPGSAGGVYETTQHFIDIKEHLHIVKRDIDNLVQRNMPSNEKPKCPELPPFPSCLSTVHFIIFVVVQTVLFIGYIMYRSQQEAAAKKFF | binds | 
3 | FLAG-tagged LMAN1 V147I variant (protein, UniProt P49257 31-510) DGVGGDPAVALPHRRFEYKYSFKGPHLVQSDGTVPFWAHAGNAIPSSDQIRVAPSLKSQRGSVWTKTKAAFENWEVEVTFRVTGRGRIGADGLAIWYAENQGLEGPVFGSADLWNGIGIFFDSFDNDGKKNNPAIVIIGNNGQIHYDHQNDGASQALASCQRDFRNKPYPVRAKITYYQNTLTVMINNGFTPDKNDYEFCAKVENMIIPAQGHFGISAATGGLADDHDVLSFLTFQLTEPGKEPPTPDKEISEKEKEKYQEEFEHFQQELDKKKEEFQKGHPDLQGQPAEEIFESVGDRELRQVFEGQNRIHLEIKQLNRQLDMILDEQRRYVSSLTEEISKRGAGMPGQHGQITQQELDTVVKTQHEILRQVNEMKNSMSETVRLVSGMQHPGSAGGVYETTQHFIDIKEHLHIVKRDIDNLVQRNMPSNEKPKCPELPPFPSCLSTVHFIIFVVVQTVLFIGYIMYRSQQEAAAKKFF | binds | 

The next lines start with the values.

Row | binding [1] | binding [2] | Binder
4 | binds |  | FLAG-tagged WT LMAN1 (lectin, mannose binding 1) (protein, UniProt P49257 31-510) DGVGGDPAVALPHRRFEYKYSFKGPHLVQSDGTVPFWAHAGNAIPSSDQIRVAPSLKSQRGSVWTKTKAAFENWEVEVTFRVTGRGRIGADGLAIWYAENQGLEGPVFGSADLWNGVGIFFDSFDNDGKKNNPAIVIIGNNGQIHYDHQNDGASQALASCQRDFRNKPYPVRAKITYYQNTLTVMINNGFTPDKNDYEFCAKVENMIIPAQGHFGISAATGGLADDHDVLSFLTFQLTEPGKEPPTPDKEISEKEKEKYQEEFEHFQQELDKKKEEFQKGHPDLQGQPAEEIFESVGDRELRQVFEGQNRIHLEIKQLNRQLDMILDEQRRYVSSLTEEISKRGAGMPGQHGQITQQELDTVVKTQHEILRQVNEMKNSMSETVRLVSGMQHPGSAGGVYETTQHFIDIKEHLHIVKRDIDNLVQRNMPSNEKPKCPELPPFPSCLSTVHFIIFVVVQTVLFIGYIMYRSQQEAAAKKFF
5 |  | binds | MCFD2 V100D variant (protein, UniProt Q8NI22 27-146) EEPAASFSQPGSMGLDKNTVHDQEHIMEHLEGVINKPEAEMSPQELQLHYFKMHDYDGNNLLDGLELSTAITHDHKEEGSEQAPLMSEDELINIIDGVLRDDDKNNDGYIDYAEFAKSLQ
